These are yes or no findings as the source states them, for the method shown. Binding seen in cells or lysates may run through a third protein. Some binding calls cover weakened binding; strength is not graded here.
Target: EZH2 (mouse (endogenous in E11.5 AGM sections)) (UniProt Q61188)
Assay: proximity ligation; Duolink PLA on 12 um sections of E11.5 mouse AGM fixed in 2% paraformaldehyde, permeabilised in methanol; primary antibodies to IκBα and EZH2 1:200 overnight at 4 degrees

Sequences of proteins named here, by UniProt entry; tags and fusion partners are left off.
UniProt Q61188: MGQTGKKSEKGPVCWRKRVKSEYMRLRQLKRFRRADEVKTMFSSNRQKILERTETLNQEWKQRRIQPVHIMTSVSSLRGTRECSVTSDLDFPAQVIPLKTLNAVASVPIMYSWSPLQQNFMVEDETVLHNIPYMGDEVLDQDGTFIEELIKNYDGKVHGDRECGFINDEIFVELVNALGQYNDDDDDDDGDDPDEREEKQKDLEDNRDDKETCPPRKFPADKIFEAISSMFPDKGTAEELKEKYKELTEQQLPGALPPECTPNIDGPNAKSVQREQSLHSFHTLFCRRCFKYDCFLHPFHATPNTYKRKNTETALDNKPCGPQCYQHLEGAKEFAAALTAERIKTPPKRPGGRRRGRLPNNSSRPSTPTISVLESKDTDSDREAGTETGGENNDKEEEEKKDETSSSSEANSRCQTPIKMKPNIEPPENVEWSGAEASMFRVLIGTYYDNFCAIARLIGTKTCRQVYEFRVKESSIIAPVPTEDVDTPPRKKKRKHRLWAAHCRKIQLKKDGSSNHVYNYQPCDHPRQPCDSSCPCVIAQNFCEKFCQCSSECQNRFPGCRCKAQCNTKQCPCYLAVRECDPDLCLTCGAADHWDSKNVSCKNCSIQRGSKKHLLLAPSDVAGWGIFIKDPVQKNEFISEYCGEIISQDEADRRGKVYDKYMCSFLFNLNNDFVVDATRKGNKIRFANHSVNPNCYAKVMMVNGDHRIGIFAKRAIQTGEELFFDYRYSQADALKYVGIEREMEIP
UniProt Q9Z1E3: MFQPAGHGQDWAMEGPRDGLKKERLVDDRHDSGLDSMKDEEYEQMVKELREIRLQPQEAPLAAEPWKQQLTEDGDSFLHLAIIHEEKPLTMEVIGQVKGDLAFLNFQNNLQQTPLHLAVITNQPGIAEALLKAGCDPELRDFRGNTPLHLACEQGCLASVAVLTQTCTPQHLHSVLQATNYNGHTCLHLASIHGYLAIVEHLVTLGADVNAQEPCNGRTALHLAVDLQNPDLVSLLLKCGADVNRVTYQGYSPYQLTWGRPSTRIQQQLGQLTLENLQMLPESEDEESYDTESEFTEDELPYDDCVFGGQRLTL

- binding: binds
Substance: IκBα (Nfkbia, the inhibitor of NF-κB) (from UniProt Q9Z1E3 1-314)

— publication PMC11144194
